From the supplement of paper PMC4604168 (melanoma cell lines)
The other results are listed elsewhere or left out. Many values rest on one well or one pass, so single values are uncertain.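 The apoptosis fraction was the count of cleaved-PARP antibody-stained nuclei relative to all DNA-stained nuclei, imaged in 1,536-well plates. Screening doses were set so most cells survived, and baseline and induced cleaved-PARP levels vary greatly across cell lines.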

How the values were obtained:
Assay in all cases: cleaved PARP positive nuclei fraction relative to DMSO control; melanoma cells; higher = more apoptosis
Details in all cases: library dose: low library concentration; 72 h
501Mel = test system: 501Mel
A101D = test system: A101D
A2058 = test system: A2058
A375 = test system: A375
C32 = test system: C32
CBRC008 = test system: CBRC008 (line from a melanoma biopsy)
CBRC014 = test system: CBRC014 (line from a melanoma biopsy)
CBRC016 = test system: CBRC016 (line from a melanoma biopsy)
CBRC017 = test system: CBRC017 (line from a melanoma biopsy)

SMILES	cleaved PARP positive nuclei fraction (501Mel)	cleaved PARP positive nuclei fraction (A101D)	cleaved PARP positive nuclei fraction (A2058)	cleaved PARP positive nuclei fraction (A375)	cleaved PARP positive nuclei fraction (C32)	cleaved PARP positive nuclei fraction (CBRC008)	cleaved PARP positive nuclei fraction (CBRC014)	cleaved PARP positive nuclei fraction (CBRC016)	cleaved PARP positive nuclei fraction (CBRC017)
Cn1cnc2c(F)c(Nc3ccc(Br)cc3Cl)c(C(=O)NOCCO)cc21 [selumetinib] + OCc1c[nH]c2ccccc12 [Indole-3-carbinol] (first compound 0.015 µM, partner dose 0.8 µM)	884%	64.4%	129%	103%	90.8%	122%	81.9%	222%	140%
CCN(CC)CCNC(=O)c1c(C)[nH]c(/C=C2\C(=O)Nc3ccc(F)cc32)c1C [sunitinib] + C=C(c1ccc(C(=O)O)cc1)c1cc2c(cc1C)C(C)(C)CCC2(C)C [Bexarotene] (first compound 0.4 µM, partner dose 2 µM)	120%	63.2%	203%	87.4%	80.9%	92.9%	103%	198%	124%
Cn1sc(=O)n(Cc2ccccc2)c1=O + Nc1nc(F)nc2c1ncn2[C@@H]1O[C@H](CO)[C@@H](O)[C@@H]1O [fludarabine] (first compound 0.4 µM, partner dose 0.2 µM)	12700%	59.2%	245%	5350%	88.5%	27.7%	85.7%	60.6%	119%
Cn1sc(=O)n(Cc2ccccc2)c1=O + Nc1cccc2c1CN(C1CCC(=O)NC1=O)C2=O [lenalidomide] (first compound 0.4 µM, partner dose 1 µM)	77.9%	127%	48.4%	35.4%	159%	119%	76.9%	108%	333%
CCN(CC)CCNC(=O)c1c(C)[nH]c(/C=C2\C(=O)Nc3ccc(F)cc32)c1C [sunitinib] + CN(c1ncccc1CNc1nc(Nc2ccc3c(c2)CC(=O)N3)ncc1C(F)(F)F)S(C)(=O)=O [PF562271] (first compound 0.4 µM, partner dose 0.08 µM)	63.2%	58%	195%	59.8%	174%	64.6%	235%	97.2%	120%
CC(=O)O[C@@]12CO[C@@H]1C[C@H](O)[C@@]1(C)C(=O)[C@H](O)C3=C(C)[C@@H](OC(=O)[C@H](O)[C@@H](NC(=O)OC(C)(C)C)c4ccccc4)C[C@@](O)([C@@H](OC(=O)c4ccccc4)[C@H]21)C3(C)C [Docetaxel] + C=CCNC1=C2C[C@@H](C)C[C@H](OC)[C@H](O)[C@@H](C)/C=C(\C)[C@H](OC(N)=O)[C@@H](OC)/C=C\C=C(/C)C(=O)NC(=CC1=O)C2=O [Tanespimycin] (first compound 0.0001 µM, partner dose 0.002 µM)	351%	89.6%	3160%	3680%	85.2%	150%	162%	194%	187%
C[C@]1(O)C[C@@H](c2nc(-c3ccc4ccc(-c5ccccc5)nc4c3)c3c(N)nccn32)C1 + Cn1c(=O)n(-c2ccc(C(C)(C)C#N)cc2)c2c3cc(-c4cnc5ccccc5c4)ccc3ncc21 [NVP-BEZ235] (first compound 0.4 µM, partner dose 0.004 µM)	220%	124%	57.3%	738%	167%	170%	130%	95.5%	116%
Cn1sc(=O)n(Cc2ccccc2)c1=O + CS(=O)(=O)CCNCc1ccc(-c2ccc3ncnc(Nc4ccc(OCc5cccc(F)c5)c(Cl)c4)c3c2)o1 [lapatinib] (first compound 0.4 µM, partner dose 0.8 µM)	76.2%	94%	200%	158%	83.9%	114%	102%	75.7%	112%
NC(=O)c1ccc(N(C(N)=O)c2c(F)cccc2F)nc1-c1ccc(F)cc1F + CCCCCCCCc1ccc(CCC(N)(CO)CO)cc1 [fingolimod] (first compound 0.4 µM, partner dose 2 µM)	259%	157%	79.7%	468%	160%	56.1%	110%	80.9%	249%
CC1(C)CCC(c2ccc(Cl)cc2)=C(CN2CCN(c3ccc(C(=O)NS(=O)(=O)c4ccc(N[C@H](CCN5CCOCC5)CSc5ccccc5)c(S(=O)(=O)C(F)(F)F)c4)cc3)CC2)C1 + CC(=O)O[C@@]12CO[C@@H]1C[C@H](O)[C@@]1(C)C(=O)[C@H](O)C3=C(C)[C@@H](OC(=O)[C@H](O)[C@@H](NC(=O)OC(C)(C)C)c4ccccc4)C[C@@](O)([C@@H](OC(=O)c4ccccc4)[C@H]21)C3(C)C [Docetaxel] (first compound 0.4 µM, partner dose 0.0001 µM)	815%	541%	4670%	7100%	256%	1250%	812%	773%	709%

As a working copy, part of the list above:
SMILES	cleaved PARP positive nuclei fraction (501Mel)	cleaved PARP positive nuclei fraction (A101D)	cleaved PARP positive nuclei fraction (A2058)	cleaved PARP positive nuclei fraction (A375)	cleaved PARP positive nuclei fraction (C32)	cleaved PARP positive nuclei fraction (CBRC008)	cleaved PARP positive nuclei fraction (CBRC014)	cleaved PARP positive nuclei fraction (CBRC016)	cleaved PARP positive nuclei fraction (CBRC017)
Cn1sc(=O)n(Cc2ccccc2)c1=O + Nc1nc(F)nc2c1ncn2[C@@H]1O[C@H](CO)[C@@H](O)[C@@H]1O [fludarabine] (first compound 0.4 µM, partner dose 0.2 µM)	12700%	59.2%	245%	5350%	88.5%	27.7%	85.7%	60.6%	119%
Cn1sc(=O)n(Cc2ccccc2)c1=O + Nc1cccc2c1CN(C1CCC(=O)NC1=O)C2=O [lenalidomide] (first compound 0.4 µM, partner dose 1 µM)	77.9%	127%	48.4%	35.4%	159%	119%	76.9%	108%	333%
